Sequences of proteins named here, by UniProt entry; tags and fusion partners are left off. A change or cut given only in a name is not applied to a line headed by its entry. Residues count along the entry.
UniProt Q9UM73, 19-1620: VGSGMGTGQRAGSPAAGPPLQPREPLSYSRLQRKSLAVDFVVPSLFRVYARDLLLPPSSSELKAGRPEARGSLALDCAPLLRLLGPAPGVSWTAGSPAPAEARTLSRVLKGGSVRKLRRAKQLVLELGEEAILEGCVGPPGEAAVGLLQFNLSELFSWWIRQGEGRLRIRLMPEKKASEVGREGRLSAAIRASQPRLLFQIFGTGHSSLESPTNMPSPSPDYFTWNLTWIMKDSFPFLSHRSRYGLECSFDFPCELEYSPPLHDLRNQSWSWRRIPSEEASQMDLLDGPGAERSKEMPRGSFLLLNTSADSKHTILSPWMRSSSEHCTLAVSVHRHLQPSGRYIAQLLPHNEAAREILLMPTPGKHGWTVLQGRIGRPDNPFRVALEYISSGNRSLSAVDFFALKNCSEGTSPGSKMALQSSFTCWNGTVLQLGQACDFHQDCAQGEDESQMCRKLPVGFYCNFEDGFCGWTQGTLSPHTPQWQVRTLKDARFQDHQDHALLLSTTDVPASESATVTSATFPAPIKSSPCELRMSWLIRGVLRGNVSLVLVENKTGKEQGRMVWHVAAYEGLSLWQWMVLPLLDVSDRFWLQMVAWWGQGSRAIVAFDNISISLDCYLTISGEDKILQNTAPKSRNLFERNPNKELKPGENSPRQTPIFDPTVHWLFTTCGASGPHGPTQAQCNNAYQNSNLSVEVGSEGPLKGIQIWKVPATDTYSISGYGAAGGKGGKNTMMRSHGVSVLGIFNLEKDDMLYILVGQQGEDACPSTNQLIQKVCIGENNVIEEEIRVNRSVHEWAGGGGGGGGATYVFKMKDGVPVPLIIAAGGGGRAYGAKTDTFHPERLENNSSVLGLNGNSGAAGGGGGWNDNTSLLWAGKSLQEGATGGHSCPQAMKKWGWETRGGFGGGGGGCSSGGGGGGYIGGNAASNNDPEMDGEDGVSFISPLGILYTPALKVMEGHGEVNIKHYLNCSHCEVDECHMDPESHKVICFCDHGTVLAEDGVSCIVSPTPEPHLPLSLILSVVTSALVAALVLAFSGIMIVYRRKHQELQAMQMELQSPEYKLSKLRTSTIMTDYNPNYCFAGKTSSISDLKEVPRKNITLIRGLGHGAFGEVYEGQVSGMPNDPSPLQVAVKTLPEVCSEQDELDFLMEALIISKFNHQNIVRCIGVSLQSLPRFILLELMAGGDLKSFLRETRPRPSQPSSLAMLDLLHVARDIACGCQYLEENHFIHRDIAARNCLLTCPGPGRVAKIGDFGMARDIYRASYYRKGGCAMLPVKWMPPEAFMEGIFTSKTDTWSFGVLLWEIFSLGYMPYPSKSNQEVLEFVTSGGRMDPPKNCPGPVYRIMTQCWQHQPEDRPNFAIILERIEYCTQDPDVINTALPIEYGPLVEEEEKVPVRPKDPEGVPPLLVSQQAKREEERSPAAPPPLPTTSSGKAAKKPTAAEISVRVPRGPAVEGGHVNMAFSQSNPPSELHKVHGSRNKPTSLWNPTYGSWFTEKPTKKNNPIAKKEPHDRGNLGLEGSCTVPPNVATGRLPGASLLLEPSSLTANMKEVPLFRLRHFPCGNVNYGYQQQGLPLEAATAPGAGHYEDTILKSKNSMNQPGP
UniProt Q09013: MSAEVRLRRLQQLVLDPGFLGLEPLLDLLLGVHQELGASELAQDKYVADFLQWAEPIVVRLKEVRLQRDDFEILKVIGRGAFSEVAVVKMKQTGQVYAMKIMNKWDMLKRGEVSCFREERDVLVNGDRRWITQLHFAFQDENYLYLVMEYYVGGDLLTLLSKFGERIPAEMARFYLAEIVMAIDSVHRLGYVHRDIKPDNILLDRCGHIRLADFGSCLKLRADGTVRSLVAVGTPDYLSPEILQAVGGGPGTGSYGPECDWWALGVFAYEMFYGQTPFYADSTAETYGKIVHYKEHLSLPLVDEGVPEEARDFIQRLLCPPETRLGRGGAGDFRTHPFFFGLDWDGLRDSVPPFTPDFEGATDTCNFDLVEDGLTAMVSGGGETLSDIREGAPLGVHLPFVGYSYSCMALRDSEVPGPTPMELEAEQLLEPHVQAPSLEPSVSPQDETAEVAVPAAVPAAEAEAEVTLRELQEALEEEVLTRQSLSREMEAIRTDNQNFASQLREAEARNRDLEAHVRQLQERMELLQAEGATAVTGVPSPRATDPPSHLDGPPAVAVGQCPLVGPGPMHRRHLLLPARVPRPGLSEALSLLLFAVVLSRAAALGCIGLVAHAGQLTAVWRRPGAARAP
UniProt Q96GX5: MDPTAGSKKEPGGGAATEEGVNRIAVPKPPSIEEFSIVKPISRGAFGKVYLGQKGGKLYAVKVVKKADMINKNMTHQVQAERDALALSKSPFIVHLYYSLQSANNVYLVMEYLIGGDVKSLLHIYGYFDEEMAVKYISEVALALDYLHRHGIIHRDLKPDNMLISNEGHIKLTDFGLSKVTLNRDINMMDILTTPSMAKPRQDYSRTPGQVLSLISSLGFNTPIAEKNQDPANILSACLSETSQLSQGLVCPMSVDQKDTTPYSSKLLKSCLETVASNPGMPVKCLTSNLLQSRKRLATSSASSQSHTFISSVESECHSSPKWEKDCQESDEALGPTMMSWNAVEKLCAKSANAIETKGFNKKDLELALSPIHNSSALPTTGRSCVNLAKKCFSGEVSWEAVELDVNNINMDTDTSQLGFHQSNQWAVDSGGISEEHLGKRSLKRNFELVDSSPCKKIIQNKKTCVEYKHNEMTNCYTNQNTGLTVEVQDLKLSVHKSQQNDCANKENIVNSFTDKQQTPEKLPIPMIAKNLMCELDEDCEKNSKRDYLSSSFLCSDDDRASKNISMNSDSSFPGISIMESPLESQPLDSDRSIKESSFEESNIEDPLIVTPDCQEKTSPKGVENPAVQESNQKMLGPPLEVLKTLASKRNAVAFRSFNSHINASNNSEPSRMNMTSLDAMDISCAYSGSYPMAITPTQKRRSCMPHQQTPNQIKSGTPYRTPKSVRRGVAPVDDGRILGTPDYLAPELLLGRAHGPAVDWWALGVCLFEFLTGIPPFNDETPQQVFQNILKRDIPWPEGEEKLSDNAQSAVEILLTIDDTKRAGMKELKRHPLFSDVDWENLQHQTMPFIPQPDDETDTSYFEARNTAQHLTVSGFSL
UniProt Q16816: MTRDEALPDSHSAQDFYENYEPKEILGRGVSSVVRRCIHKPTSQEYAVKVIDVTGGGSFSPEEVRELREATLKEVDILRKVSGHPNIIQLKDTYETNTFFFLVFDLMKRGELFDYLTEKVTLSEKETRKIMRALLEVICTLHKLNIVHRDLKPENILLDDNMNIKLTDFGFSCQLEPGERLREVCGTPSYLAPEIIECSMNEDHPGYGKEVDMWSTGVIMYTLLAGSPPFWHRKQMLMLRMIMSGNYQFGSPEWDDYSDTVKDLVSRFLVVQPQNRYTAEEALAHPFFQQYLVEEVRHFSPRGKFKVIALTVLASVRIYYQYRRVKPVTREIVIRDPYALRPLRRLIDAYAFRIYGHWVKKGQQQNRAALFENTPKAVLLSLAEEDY
UniProt Q9NY57, whole entry: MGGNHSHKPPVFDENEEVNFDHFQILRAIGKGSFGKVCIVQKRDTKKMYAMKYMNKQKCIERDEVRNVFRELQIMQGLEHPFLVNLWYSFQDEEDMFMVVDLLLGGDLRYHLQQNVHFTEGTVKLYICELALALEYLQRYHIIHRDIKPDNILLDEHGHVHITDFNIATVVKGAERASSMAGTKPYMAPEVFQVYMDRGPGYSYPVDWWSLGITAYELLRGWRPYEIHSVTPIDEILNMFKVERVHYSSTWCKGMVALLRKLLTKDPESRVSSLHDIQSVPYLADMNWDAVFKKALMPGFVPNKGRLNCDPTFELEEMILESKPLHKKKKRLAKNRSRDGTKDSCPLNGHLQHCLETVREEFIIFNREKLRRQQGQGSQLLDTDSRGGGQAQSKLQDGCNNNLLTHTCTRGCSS
UniProt Q96NX5: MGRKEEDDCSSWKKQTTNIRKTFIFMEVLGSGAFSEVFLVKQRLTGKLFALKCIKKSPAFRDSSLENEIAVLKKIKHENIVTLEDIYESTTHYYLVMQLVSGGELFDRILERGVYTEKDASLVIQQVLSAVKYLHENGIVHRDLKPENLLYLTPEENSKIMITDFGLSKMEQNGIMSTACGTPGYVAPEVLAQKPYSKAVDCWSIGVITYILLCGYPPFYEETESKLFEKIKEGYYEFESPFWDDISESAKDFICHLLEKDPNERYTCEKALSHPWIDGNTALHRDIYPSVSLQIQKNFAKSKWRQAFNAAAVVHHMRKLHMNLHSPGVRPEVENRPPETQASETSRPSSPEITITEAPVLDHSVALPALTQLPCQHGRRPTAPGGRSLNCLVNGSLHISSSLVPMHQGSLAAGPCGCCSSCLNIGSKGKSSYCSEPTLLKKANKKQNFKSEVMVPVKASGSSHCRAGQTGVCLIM
UniProt P49760, whole entry: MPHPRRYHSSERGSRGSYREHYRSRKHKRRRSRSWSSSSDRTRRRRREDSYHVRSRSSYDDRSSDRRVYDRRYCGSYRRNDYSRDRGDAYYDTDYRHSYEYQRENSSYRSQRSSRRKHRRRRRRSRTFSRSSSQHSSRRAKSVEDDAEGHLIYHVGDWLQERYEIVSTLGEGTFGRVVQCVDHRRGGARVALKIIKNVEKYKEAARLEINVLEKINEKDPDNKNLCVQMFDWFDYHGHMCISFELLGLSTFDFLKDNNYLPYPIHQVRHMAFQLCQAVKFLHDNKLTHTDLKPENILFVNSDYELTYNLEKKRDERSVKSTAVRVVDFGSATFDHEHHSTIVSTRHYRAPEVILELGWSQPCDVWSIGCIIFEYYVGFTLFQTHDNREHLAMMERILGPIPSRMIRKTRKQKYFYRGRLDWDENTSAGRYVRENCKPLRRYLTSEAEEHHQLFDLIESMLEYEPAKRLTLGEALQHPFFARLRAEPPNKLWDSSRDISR
UniProt Q12852: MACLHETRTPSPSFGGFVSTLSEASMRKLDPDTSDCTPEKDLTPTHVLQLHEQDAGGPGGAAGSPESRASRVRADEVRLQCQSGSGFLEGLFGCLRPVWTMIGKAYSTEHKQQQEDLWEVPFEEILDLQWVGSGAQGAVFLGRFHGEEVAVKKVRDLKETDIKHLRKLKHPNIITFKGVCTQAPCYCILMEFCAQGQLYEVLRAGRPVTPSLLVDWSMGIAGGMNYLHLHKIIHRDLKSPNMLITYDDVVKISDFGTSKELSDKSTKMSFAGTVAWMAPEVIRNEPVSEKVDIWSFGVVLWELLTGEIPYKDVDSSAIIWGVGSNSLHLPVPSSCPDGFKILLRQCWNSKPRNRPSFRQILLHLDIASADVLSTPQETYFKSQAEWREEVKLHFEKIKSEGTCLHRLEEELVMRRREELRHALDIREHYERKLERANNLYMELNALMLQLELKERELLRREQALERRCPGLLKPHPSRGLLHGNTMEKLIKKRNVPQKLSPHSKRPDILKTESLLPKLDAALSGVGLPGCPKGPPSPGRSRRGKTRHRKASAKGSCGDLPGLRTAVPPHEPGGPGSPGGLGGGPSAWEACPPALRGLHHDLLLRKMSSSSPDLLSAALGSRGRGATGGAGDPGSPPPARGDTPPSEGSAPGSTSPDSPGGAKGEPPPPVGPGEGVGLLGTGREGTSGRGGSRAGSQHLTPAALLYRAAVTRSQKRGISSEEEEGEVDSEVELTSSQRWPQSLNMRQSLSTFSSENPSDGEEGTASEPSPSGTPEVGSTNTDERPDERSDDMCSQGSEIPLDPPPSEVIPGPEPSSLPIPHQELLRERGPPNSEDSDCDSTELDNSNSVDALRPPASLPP
UniProt Q08881: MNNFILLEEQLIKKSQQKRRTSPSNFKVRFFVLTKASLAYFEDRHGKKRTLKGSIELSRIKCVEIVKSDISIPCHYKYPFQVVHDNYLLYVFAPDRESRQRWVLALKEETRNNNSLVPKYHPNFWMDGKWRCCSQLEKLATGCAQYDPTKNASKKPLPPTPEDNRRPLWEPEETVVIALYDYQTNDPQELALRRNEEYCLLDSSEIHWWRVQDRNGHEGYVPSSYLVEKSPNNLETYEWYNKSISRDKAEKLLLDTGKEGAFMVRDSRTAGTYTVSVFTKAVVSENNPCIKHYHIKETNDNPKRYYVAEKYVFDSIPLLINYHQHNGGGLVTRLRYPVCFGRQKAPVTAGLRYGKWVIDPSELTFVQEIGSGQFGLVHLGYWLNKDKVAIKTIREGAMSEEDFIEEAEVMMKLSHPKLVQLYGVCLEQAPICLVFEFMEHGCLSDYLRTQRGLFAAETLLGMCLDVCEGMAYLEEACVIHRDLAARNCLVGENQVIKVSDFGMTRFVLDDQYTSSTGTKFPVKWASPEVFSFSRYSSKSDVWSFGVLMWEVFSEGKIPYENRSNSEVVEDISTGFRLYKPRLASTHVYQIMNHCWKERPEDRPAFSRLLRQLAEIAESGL

According to publication PMC8213057, “Targeting ALK2: An Open Science Approach to Developing Therapeutics for the Treatment of Diffuse Intrinsic Pontine Glioma” (Journal of Medicinal Chemistry, 2020):

Assays:
AKT3 = AKT3 (Homo sapiens, UniProt Q9Y243); settings: 1 μM; Run 1, Run 2
ALK = ALK (Homo sapiens, UniProt Q9UM73); settings: 1 μM; Run 1, Run 2
CAMK2d = CAMK2d (Homo sapiens, UniProt Q13557); settings: 1 μM; Run 1, Run 2
CDK2/cyclin E2 = CDK2/cyclin E2 (Homo sapiens, UniProt P24941); settings: 1 μM; Run 1, Run 2
CHK1 = CHK1 (Homo sapiens, UniProt O14757); settings: 1 μM; Run 1, Run 2
CK1a1L = CK1a1L (Homo sapiens, UniProt Q8N752); settings: 1 μM; Run 1, Run 2
DMPK = DMPK (Homo sapiens, UniProt Q09013); settings: 1 μM; Run 1, Run 2
FGFR4 = FGFR4 (Homo sapiens, UniProt P22455); settings: 1 μM; Run 1, Run 2
HCK = HCK (Homo sapiens, UniProt P08631); settings: 1 μM; Run 1, Run 2
JAK1 = JAK1 (Homo sapiens, UniProt P23458); settings: 1 μM; Run 1, Run 2
KDR/VEGFR2 = KDR/VEGFR2 (Homo sapiens, UniProt P35968); settings: 1 μM; Run 1, Run 2
MASTL = MASTL (Homo sapiens, UniProt Q96GX5); settings: 1 μM; Run 1, Run 2
MEK5 = MEK5 (Homo sapiens, UniProt Q13163); settings: 1 μM; Run 1, Run 2
NEK7 = NEK7 (Homo sapiens, UniProt Q8TDX7); settings: 1 μM; Run 1, Run 2
PDK1/PDPK1 = PDK1/PDPK1 (Homo sapiens, UniProt O15530); settings: 1 μM; Run 1, Run 2
PHKg1 = PHKg1 (Homo sapiens, UniProt Q16816); settings: 1 μM; Run 1, Run 2
PKAcg = PKAcg (Homo sapiens, UniProt P22612); settings: 1 μM; Run 1, Run 2
PKCd = PKCd (Homo sapiens, UniProt Q05655); settings: 1 μM; Run 1, Run 2
STK25/YSK1 = STK25/YSK1 (Homo sapiens, UniProt O00506); settings: 1 μM; Run 1, Run 2
STK32B/YANK2 = STK32B/YANK2 (Homo sapiens, UniProt Q9NY57); settings: 1 μM; Run 1, Run 2
TIE2/TEK = TIE2/TEK (Homo sapiens, UniProt Q02763); settings: 1 μM; Run 1, Run 2
AKT1 = AKT1 (Homo sapiens, UniProt P31749); test: biochemical; settings: read-out: % enzyme activity, 1 μM; Run 1, Run 2
CAMK1g = CAMK1g (Homo sapiens, UniProt Q96NX5); test: biochemical; settings: read-out: % enzyme activity, 1 μM; Run 1, Run 2
CDK14/cyclin Y (PFTK1) = CDK14/cyclin Y (PFTK1) (Homo sapiens, UniProt O94921); test: biochemical; settings: read-out: % enzyme activity, 1 μM; Run 1, Run 2
CDK18/cyclin Y (PCTK3) = CDK18/cyclin Y (PCTK3) (Homo sapiens, UniProt Q07002); test: biochemical; settings: read-out: % enzyme activity, 1 μM; Run 1, Run 2
CLK2 = CLK2 (Homo sapiens, UniProt P49760); test: biochemical; settings: read-out: % enzyme activity, 1 μM; Run 1, Run 2
CTK/MATK = CTK/MATK (Homo sapiens, UniProt P42679); test: biochemical; settings: read-out: % enzyme activity, 1 μM; Run 1, Run 2
DLK/MAP3K12 = DLK/MAP3K12 (Homo sapiens, UniProt Q12852); test: biochemical; settings: read-out: % enzyme activity, 1 μM; Run 1, Run 2
DMPK2 = DMPK2 (Homo sapiens, UniProt Q6DT37); test: biochemical; settings: read-out: % enzyme activity, 1 μM; Run 1, Run 2
ERK1 = ERK1 (Homo sapiens, UniProt P27361); test: biochemical; settings: read-out: % enzyme activity, 1 μM; Run 1, Run 2
FES/FPS = FES/FPS (Homo sapiens, UniProt P07332); test: biochemical; settings: read-out: % enzyme activity, 1 μM; Run 1, Run 2
GRK4 = GRK4 (Homo sapiens, UniProt P32298); test: biochemical; settings: read-out: % enzyme activity, 1 μM; Run 1, Run 2
HIPK1 = HIPK1 (Homo sapiens, UniProt Q86Z02); test: biochemical; settings: read-out: % enzyme activity, 1 μM; Run 1, Run 2
IKKb/IKBKB = IKKb/IKBKB (Homo sapiens, UniProt O14920); test: biochemical; settings: read-out: % enzyme activity, 1 μM; Run 1, Run 2
ITK = ITK (Homo sapiens, UniProt Q08881); test: biochemical; settings: read-out: % enzyme activity, 1 μM; Run 1, Run 2
MARK2/PAR-1Ba = MARK2/PAR-1Ba (Homo sapiens, UniProt Q7KZI7); test: biochemical; settings: read-out: % enzyme activity, 1 μM; Run 1, Run 2
MNK1 = MNK1 (Homo sapiens, UniProt Q9BUB5); test: biochemical; settings: read-out: % enzyme activity, 1 μM; Run 1, Run 2
MST4 = MST4 (Homo sapiens, UniProt Q9P289); test: biochemical; settings: read-out: % enzyme activity, 1 μM; Run 1, Run 2
NEK1 = NEK1 (Homo sapiens, UniProt Q96PY6); test: biochemical; settings: read-out: % enzyme activity, 1 μM; Run 1, Run 2
PKCg = PKCg (Homo sapiens, UniProt P05129); test: biochemical; settings: read-out: % enzyme activity, 1 μM; Run 1, Run 2
SNARK/NUAK2 = SNARK/NUAK2 (Homo sapiens, UniProt Q9H093); test: biochemical; settings: read-out: % enzyme activity, 1 μM; Run 1, Run 2
STK32C/YANK3 = STK32C/YANK3 (Homo sapiens, UniProt Q86UX6); test: biochemical; settings: read-out: % enzyme activity, 1 μM; Run 1, Run 2
SYK = SYK (Homo sapiens, UniProt P43405); test: biochemical; settings: read-out: % enzyme activity, 1 μM; Run 1, Run 2

COc1cc(-c2cncc(-c3ccc(N4CCN(C(C)C)CC4)cc3)c2C)cc(F)c1C(N)=O [Compound 26b, 2-Fluoro-4-(5-(4-(4-isopropylpiperazin-1-yl)phenyl)-4-methylpyridin-3-yl)-6-methoxybenzamide] was tested, and the “% enzyme activity” value (AKT3) was 97.15%, the “% enzyme activity” value (ALK) was 102.24% and the “% enzyme activity” value (CAMK2d) was 93.45%. For the same molecule, the “% enzyme activity” value (CDK2/cyclin E2) was 104.46%, the “% enzyme activity” value (CHK1) was 105.34% and the “% enzyme activity” value (CK1a1L) was 102.82%. For the same molecule, the “% enzyme activity” value (DMPK) was 110.69%, the “% enzyme activity” value (FGFR4) was 94.51% and the “% enzyme activity” value (HCK) was 93.44%. For the same molecule, the “% enzyme activity” value (JAK1) was 96.26%, the “% enzyme activity” value (KDR/VEGFR2) was 95.43% and the “% enzyme activity” value (MASTL) was 93.05%. The “% enzyme activity” value (MEK5) was 93.44%, the “% enzyme activity” value (NEK7) was 93.87% and the “% enzyme activity” value (PDK1/PDPK1) was 93.89%. The “% enzyme activity” value (PHKg1) was 92.81%, the “% enzyme activity” value (PKAcg) was 88.31% and the “% enzyme activity” value (PKCd) was 92.22%. For the same molecule, the “% enzyme activity” value (STK25/YSK1) was 91.63%, the “% enzyme activity” value (STK32B/YANK2) was 82.92% and the “% enzyme activity” value (TIE2/TEK) was 91.97%. The remaining activity at 1 µM (AKT1) was 102%, the remaining activity at 1 µM (CAMK1g) was 99% and the remaining activity at 1 µM (CDK14/cyclin Y (PFTK1)) was 97.8%. It also gave a remaining activity at 1 µM (CDK18/cyclin Y (PCTK3)) of 102%, a remaining activity at 1 µM (CLK2) of 88.3% and a remaining activity at 1 µM (CTK/MATK) of 95.2%. It also gave a remaining activity at 1 µM (DLK/MAP3K12) of 94.5%, a remaining activity at 1 µM (DMPK2) of 87% and a remaining activity at 1 µM (ERK1) of 98.7%. It also gave a remaining activity at 1 µM (FES/FPS) of 97%, a remaining activity at 1 µM (GRK4) of 91.8% and a remaining activity at 1 µM (HIPK1) of 100%. For the same molecule, the remaining activity at 1 µM (IKKb/IKBKB) was 109%, the remaining activity at 1 µM (ITK) was 99.5% and the remaining activity at 1 µM (MARK2/PAR-1Ba) was 93.7%. It also gave a remaining activity at 1 µM (MNK1) of 61%, a remaining activity at 1 µM (MST4) of 90.7% and a remaining activity at 1 µM (NEK1) of 100%. The remaining activity at 1 µM (PKCg) was 98.3%, the remaining activity at 1 µM (SNARK/NUAK2) was 92.7% and the remaining activity at 1 µM (STK32C/YANK3) was 92.8%. It also gave a remaining activity at 1 µM (SYK) of 105%.
